According to paper PMC7819943, “Rice protein-binding microarrays: a tool to detect cis-acting elements near promoter regions in rice”:
Some of the results follow.

Biological target: T1, OsSMF1 (Oryza sativa, UniProt Q6ZLB0 1-436)
T1 sequence: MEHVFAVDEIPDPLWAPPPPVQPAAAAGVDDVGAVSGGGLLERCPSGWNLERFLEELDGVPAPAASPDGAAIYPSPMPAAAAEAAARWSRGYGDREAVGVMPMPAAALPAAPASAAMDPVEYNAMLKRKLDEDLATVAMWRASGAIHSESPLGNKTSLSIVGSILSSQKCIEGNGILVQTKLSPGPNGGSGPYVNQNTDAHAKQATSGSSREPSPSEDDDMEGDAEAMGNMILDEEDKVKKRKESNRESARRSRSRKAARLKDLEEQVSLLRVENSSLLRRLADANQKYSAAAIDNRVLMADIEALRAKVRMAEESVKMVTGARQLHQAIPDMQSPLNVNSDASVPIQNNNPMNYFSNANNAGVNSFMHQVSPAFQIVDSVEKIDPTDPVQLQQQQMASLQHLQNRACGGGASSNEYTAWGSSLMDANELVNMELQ
Assay: protein-binding microarray (RPBM); PBS, 2% BSA, 51.3 ng/ul salmon testes DNA, 50 uM zinc acetate, 200 nM TF, 25 C, 1 h; high values mean tight binding
Conditions: protein: recombinant; tags: N-terminal polyhistidine and DsRed monomer fusion (pET32a); chain copies: 2; label: CyDye5-dUTP incorporated in the synthesized complementary strand; 3' TTTTT single-stranded linker to array surface; dsDNA, one strand shown
Outline: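 The binding signal for each feature is its fluorescence intensity in arbitrary units. An Axon 4000B scanner was used to read a custom Agilent array that had been made double-stranded with Cy5-dUTP primer extension, blocked with 2% BSA, incubated at 25 °C for 1 h with 200 nM protein in PBS, 2% BSA, salmon testes DNA and 50 µM zinc acetate, and washed. The protein was an N-terminal polyhistidine–DsRed transcription factor fusion from E. coli BL21-CodonPlus, purified on Ni–NTA.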

| Sequence | binding signal |
| --- | --- |
| GGTGCTAGCAATGGGCTGACTAGGTACGATCTATCATGTACGGAGTCACCTAGTGCAG | 3240 fluorescence intensity (a.u.) |
| GTTTCGTTTCGTGGAAGAGTTCGATTCCAGCTAATATAATCGGAGTCACCTAGTGCAG | 3690 fluorescence intensity (a.u.) |
| GTCATTTTGCCTGTTGACTCAGACATAGGATTGCTTGACGCGGAGTCACCTAGTGCAG | 10000 fluorescence intensity (a.u.) |
| TCCCGCCACGCAGAGGAGTCAGGGCGTCGACGCGGTCGATCGGAGTCACCTAGTGCAG | 3320 fluorescence intensity (a.u.) |
| TAGTAGTCAGAAACCCGATGTACGTCGTCCCATGCTACTGCGGAGTCACCTAGTGCAG | 3750 fluorescence intensity (a.u.) |
| TTCCCAAACCACCGGACCGGGGTTACCACACGGTAACCGTCGGAGTCACCTAGTGCAG | 30700 fluorescence intensity (a.u.) |
| AACATAGTATATGATACAATCATCTCTATGATTGCCTCTACGGAGTCACCTAGTGCAG | 3950 fluorescence intensity (a.u.) |
| ACCTATCGAAAGTTTGCTCATCAGTACGTCATTCTCGATCCGGAGTCACCTAGTGCAG | 3380 fluorescence intensity (a.u.) |
| CTCCGATGAAATATTCGAAAGCGAAGCCACGTGGTTTGACCGGAGTCACCTAGTGCAG | 7790 fluorescence intensity (a.u.) |
| CTGCCGCTATAAATACTCATCTCATCTCATCATCCACCATCGGAGTCACCTAGTGCAG | 4330 fluorescence intensity (a.u.) |
| GGCAAATGATGACTCGTTTCAGATTCTTCACAAATAAATCCGGAGTCACCTAGTGCAG | 3790 fluorescence intensity (a.u.) |
| TTATTGCAAAATAGAAGGATGACGCCACGACGGCCGCTGCCGGAGTCACCTAGTGCAG | 3330 fluorescence intensity (a.u.) |
| AAGGGTTCAAAACTGGGTCAGGGCTGAGTGAAATGCATAACGGAGTCACCTAGTGCAG | 17500 fluorescence intensity (a.u.) |
| CAACAGCCGCGAGGCGAGACGACGATGACGCCGCCTATGGCGGAGTCACCTAGTGCAG | 4840 fluorescence intensity (a.u.) |
| TCGACCGCGTCATCTCGTCCAAGCCCTCCATATGCTTCCACGGAGTCACCTAGTGCAG | 5850 fluorescence intensity (a.u.) |
| AAACTTTACTCCTCTAGATCTAAACTTTACACGCCAGTTGCGGAGTCACCTAGTGCAG | 3760 fluorescence intensity (a.u.) |
| CCCGTAACACGAGTCCACCTCCCGTTCCCGCCACCACCATCGGAGTCACCTAGTGCAG | 3520 fluorescence intensity (a.u.) |
| CACCGCTTCTCTCCTCTCCCACTCCTCTCCTTCTCCTTCTCGGAGTCACCTAGTGCAG | 8140 fluorescence intensity (a.u.) |
| TGTTCGGCAGCAAGGACAGGTGGGCTTGACACAGGCATATCGGAGTCACCTAGTGCAG | 3350 fluorescence intensity (a.u.) |
| TACAATAGAGTATGTGGTGGGGACACGTGGCAGTGTGGGTCGGAGTCACCTAGTGCAG | 33000 fluorescence intensity (a.u.) |
| AGGCCCACATGCCTCTCGCCTTATAAGTAGCCGAGGCAGTCGGAGTCACCTAGTGCAG | 32600 fluorescence intensity (a.u.) |

| Sequence | binding signal |
| --- | --- |
| GCGTCGCCACTGCCGCCGCTTTCTCCACCGCCGTCGCCACCGGAGTCACCTAGTGCAG | 12200 fluorescence intensity (a.u.) |
| CACCGCGCCGTGGGCTGCGTGGCGTGGCTCGCCGCGGGGTCGGAGTCACCTAGTGCAG | 5400 fluorescence intensity (a.u.) |
| ACACTTATCGACGTGCCAGCGCGACGCAATATGCTCCGATCGGAGTCACCTAGTGCAG | 5400 fluorescence intensity (a.u.) |
| ATCTATCAATTTTATTGAAGATGTGACGTGTGAGTGTGGACGGAGTCACCTAGTGCAG | 11400 fluorescence intensity (a.u.) |
| ATGCTGTGATCCAACTTGTTGTACAGAACCTCATGCATTACGGAGTCACCTAGTGCAG | 3740 fluorescence intensity (a.u.) |
| ATGTGATTAAATGGAGGGTTTTCGGGGAGGGTTTTCGGGGCGGAGTCACCTAGTGCAG | 4170 fluorescence intensity (a.u.) |
| CTATCCCTCAAGTGTTTGGGATGCTGTCAAGTTTGGTTGACGGAGTCACCTAGTGCAG | 3300 fluorescence intensity (a.u.) |
| CGCTCGTCGCCACATCGCTTGCTTCCCCGTCACTCCCACTCGGAGTCACCTAGTGCAG | 3480 fluorescence intensity (a.u.) |
| CGCCGACCTCAGCTGCTGCGTCATCCCACCGACGTCAGCACGGAGTCACCTAGTGCAG | 16800 fluorescence intensity (a.u.) |
| AGGTTTCGGGAACCGTCGGATCAGATTTCCATGGTCCAGACGGAGTCACCTAGTGCAG | 19800 fluorescence intensity (a.u.) |
| TCCTAGCCTAGCTTCCATCGACTTGGCCCCACCTGGCAGCCGGAGTCACCTAGTGCAG | 9240 fluorescence intensity (a.u.) |
| ATTAAGTATCCTAGGAGATAAATACCATGTCACATTGTCACGGAGTCACCTAGTGCAG | 8690 fluorescence intensity (a.u.) |
| CCCTACGTGCACACATCCAGCTCCATTATATAGCCATTTTCGGAGTCACCTAGTGCAG | 54800 fluorescence intensity (a.u.) |
| CGTGTGACTGTGTTTGTGACGCGGTGGCTGGTGAAGGCCGCGGAGTCACCTAGTGCAG | 3750 fluorescence intensity (a.u.) |
| CAACGTGGACAGCACACGCGTACGTGTGGGCCCGGTCGGCCGGAGTCACCTAGTGCAG | 7040 fluorescence intensity (a.u.) |
| GCGGGATCACAAACGTGGTTTCCCATCCCTGTCTTAATGTCGGAGTCACCTAGTGCAG | 3680 fluorescence intensity (a.u.) |
| AGTTCTACAAGCCTACAATTTTGACATGCTGTACAAGAGGCGGAGTCACCTAGTGCAG | 3370 fluorescence intensity (a.u.) |
| TCCCGGCCATCTTCTTCTCAAAGTCTCTAACTCTAATAAGCGGAGTCACCTAGTGCAG | 31700 fluorescence intensity (a.u.) |
| CTTACTAAATTGCAATATGCACTGGCGGCGTCGTCAGCACCGGAGTCACCTAGTGCAG | 5720 fluorescence intensity (a.u.) |
| TGGCCATTGACGTGCATACTTTAATCGACTAATCAATTCCCGGAGTCACCTAGTGCAG | 3540 fluorescence intensity (a.u.) |
| ACCCTCTCACCCTAGCTTAGTTTGCCACGACCTGGACCCACGGAGTCACCTAGTGCAG | 3920 fluorescence intensity (a.u.) |

Taken from the results shown (12 entries):

| Sequence | binding signal |
| --- | --- |
| CACCGCGCCGTGGGCTGCGTGGCGTGGCTCGCCGCGGGGTCGGAGTCACCTAGTGCAG | 5400 fluorescence intensity (a.u.) |
| ACACTTATCGACGTGCCAGCGCGACGCAATATGCTCCGATCGGAGTCACCTAGTGCAG | 5400 fluorescence intensity (a.u.) |
| ATCTATCAATTTTATTGAAGATGTGACGTGTGAGTGTGGACGGAGTCACCTAGTGCAG | 11400 fluorescence intensity (a.u.) |
| ATGCTGTGATCCAACTTGTTGTACAGAACCTCATGCATTACGGAGTCACCTAGTGCAG | 3740 fluorescence intensity (a.u.) |
| ATGTGATTAAATGGAGGGTTTTCGGGGAGGGTTTTCGGGGCGGAGTCACCTAGTGCAG | 4170 fluorescence intensity (a.u.) |
| CTATCCCTCAAGTGTTTGGGATGCTGTCAAGTTTGGTTGACGGAGTCACCTAGTGCAG | 3300 fluorescence intensity (a.u.) |
| CGCTCGTCGCCACATCGCTTGCTTCCCCGTCACTCCCACTCGGAGTCACCTAGTGCAG | 3480 fluorescence intensity (a.u.) |
| CGCCGACCTCAGCTGCTGCGTCATCCCACCGACGTCAGCACGGAGTCACCTAGTGCAG | 16800 fluorescence intensity (a.u.) |
| AGGTTTCGGGAACCGTCGGATCAGATTTCCATGGTCCAGACGGAGTCACCTAGTGCAG | 19800 fluorescence intensity (a.u.) |
| TCCTAGCCTAGCTTCCATCGACTTGGCCCCACCTGGCAGCCGGAGTCACCTAGTGCAG | 9240 fluorescence intensity (a.u.) |
| ATTAAGTATCCTAGGAGATAAATACCATGTCACATTGTCACGGAGTCACCTAGTGCAG | 8690 fluorescence intensity (a.u.) |
| CCCTACGTGCACACATCCAGCTCCATTATATAGCCATTTTCGGAGTCACCTAGTGCAG | 54800 fluorescence intensity (a.u.) |
